From PubChem BioAssay AID2685 (National Center for Advancing Translational Sciences (NCATS), 2010)
In all, about 320,000 compounds went through this assay and about 2,100 (0.66%) were called active. Inconclusive results, whose numbers are uncertain, are shown with a selection of clear calls. Calls follow the shape of the dose curve; as a rule, active = well fitted inhibition curve with a large enough effect in the signal ratio, with a control signal flat (not every such curve was filed as active); inconclusive = small, poorly fitted or top-dose-only effect, or effect the other way, or a change in a side signal; inactive = flat fitted curve, though single readings scatter; the % refers to the signal ratio. A potency beside an inconclusive call is a rough fit, not a confirmed value.

test: qHTS Assay for Lipid Storage Modulators in Drosophila S3 Cells; conditions: BODIPY lipid droplet fluorescence, 18-24 h, cells fed with added oleic acid; lipid storage change, negative = inhibition: at 46.1 µM (top of the series) unless noted
Procedure, shortened: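 Drosophila S3 cells loaded with oleic acid (400 uM, as added) and compounds at several concentrations; lipid droplets imaged by 488-nm laser-scanning cytometry, 500–530 nm intensity and object ratio to cell channel. Percent activity normalized to 20 uM Triacsin C.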
% is scaled to controls: 0 for no effect and ±100 for the full control effect; potency is read from the fitted curve at half-maximal effect.

Compound | lipid storage change, negative = inhibition | Potency
COC(=O)COc1ccccc1/C=C1/NC(=O)NC1=O | inconclusive: -2.73% | 
C/C(=N/NC(=O)c1ccc(Br)o1)c1cccc(NC(=O)c2ccc(F)cc2)c1 | inconclusive: -82.8% | 
Cc1csc(SCC(=O)NC(=O)c2ccccc2)n1 | inconclusive | 
CC1CCCN(C(=O)CCNC(=O)Cn2cnc3ccccc3c2=O)C1 (stereo not drawn) | inconclusive: -85.2% | 
CCOC(=O)N1CCC(NC(=O)c2cc(C(=O)NCc3cccc(Cl)c3)ccc2CO)CC1 | inconclusive: -51% | 
CC(=O)[C@@]12O[C@@H]1C[C@H]1[C@@H]3CC[C@H]4C[C@@H](O)CC[C@]4(C)[C@H]3CC[C@@]12C | inconclusive: -27.5% | 
COCCn1c(SCC(=O)Nc2cc(C)on2)nnc1-c1c[nH]c2ccccc12 | inconclusive: -0.511% | 
COc1cc(N)c(Cl)cc1C(=O)OCC(=O)N1CCc2ccccc21 |  | inconclusive: 0.411 µM [activator, full curve, poor fit]
CCC1CCCCN1CCCNC(=O)c1ccc2c(=O)n(CCOC)c(=O)[nH]c2c1 (stereo not drawn) |  | inconclusive: 1.3 µM [falling, full curve]
COc1ccccc1C(=O)NNC(=O)C1CC=CCC1 (stereo not drawn) |  | inconclusive: 29.1 µM [activator, single point]
O=C(NC1CC1)c1ccc(CS(=O)c2ccccc2)o1 (stereo not drawn) |  | inconclusive: 29.1 µM [activator, single point]
Cc1ccccc1-c1nnc(NC(=O)c2ccc(N3C(=O)CCC3=O)cc2)s1 | inconclusive: -1.4% | 
O=C(NCCc1ccc(F)cc1)c1cc(=O)c2ccccc2o1 |  | inconclusive: 20.6 µM [falling, single point]
O=[N+]([O-])c1ccc(-c2csc(N3CCc4ccccc4C3)n2)cc1 | inconclusive: 25.8% | 
COc1cccc(NC(=O)CN(C)C(=O)c2cc3c(s2)CCCCC3)c1 | inconclusive: -41.2% | 
CCc1cc(C(=O)OC)c(NC(=O)c2cc(Br)cs2)s1 |  | inconclusive: 1.64 µM [activator, partial curve, poor fit]
Cc1n[nH]c(=O)c2ccccc12 |  | inconclusive: 0.0058 µM [falling, full curve, poor fit]
O=C(NNc1ncnc2c1cnn2-c1ccc(F)cc1)c1cccs1 | inconclusive: 16.3% | 
O=C(N1CCCCC1)N1CCN(S(=O)(=O)c2ccccc2)CC1 | inconclusive: 57.4% | 
CC(=O)Nc1nnc(SCC(=O)NC2CC2)s1 |  | inconclusive: 29.1 µM [activator, single point]
COc1cccc(-c2nn(-c3ccccc3)cc2CNC(C)Cn2cncn2)c1 (stereo not drawn) | inconclusive: -5.92% | 
COc1ccc(C)cc1NC(=O)c1ccc(NS(=O)(=O)c2c(C)noc2C)cc1 | inconclusive: -90.9% | 
CC(Sc1nc(N)cc(=O)[nH]1)C(=O)Nc1sc2c(c1C#N)CCCC2 (stereo not drawn) |  | inconclusive: 29.1 µM [cytotoxic, single point]
O=C(N/N=C/c1ccc(Br)o1)c1cncc(Br)c1 | inconclusive: 31.6% | 

Rewritten as comma-separated lines: entries from further up
Compound,"lipid storage change, negative = inhibition",Potency
CCc1cc(C(=O)OC)c(NC(=O)c2cc(Br)cs2)s1,,"inconclusive: 1.64 µM [activator, partial curve, poor fit]"
Cc1n[nH]c(=O)c2ccccc12,,"inconclusive: 0.0058 µM [falling, full curve, poor fit]"
O=C(NNc1ncnc2c1cnn2-c1ccc(F)cc1)c1cccs1,inconclusive: 16.3%,

Going on with the list:

Compound | lipid storage change, negative = inhibition | Potency
Cc1ccc(CNC(=O)COc2cc(O)c3c(c2)OC(C)(C)CC3=O)cc1 | inconclusive: -35% | 
COc1ccc(NC(=O)Nc2cc(NC(=O)Nc3ccc(OC)cc3)c(C)nc2C)cc1 | inconclusive: -25.2% | 
COc1ccccc1NC(=O)Cn1c(O)c(N=NC(=O)c2ccccc2O)c2ccccc21 | inconclusive: -35.3% | 
Cc1nnc(NC(=O)CSc2cn(Cc3ccccc3)c3ccccc23)s1 | inconclusive: 37.6% | 
COC(=O)c1ccc(-c2noc(CN3C[C@H]4CC[C@H]3C4)n2)cc1 | inactive | 
O=C(O)c1ccccc1-c1ccc(/C=C/c2cc(C(F)(F)F)[nH]c(=O)n2)o1 | inconclusive: 21.5% | 
COc1ccc(N2CCN(C(=O)c3cc(-c4cccs4)nc4ccccc34)CC2)cc1 | inconclusive: 70.6% | 
CCOC(=O)N1CCC(NC(=O)c2sc3nc4n(c(=O)c3c2C)CCCC4)CC1 |  | inconclusive: 0.366 µM [falling, full curve, poor fit]
CC1CCCCN1C(=O)CNCC1CCCO1 (stereo not drawn) | inconclusive: -21.3% | 
CC(CCc1ccccc1)NC(=O)c1ccc(NC(=O)c2ccccc2)cc1 (stereo not drawn) |  | inconclusive: 23.1 µM [cytotoxic, single point]
O=C(/C=C/c1cccc(OCc2ccccc2)c1)c1cccnc1 |  | inconclusive: 23.1 µM [falling, single point]
O=C(COC(=O)CNC(=O)c1ccc(Cl)cc1Cl)Nc1ccc(N2CCOCC2)cc1 |  | inconclusive: 0.116 µM [activator, single point]
NS(=O)(=O)c1ccc(NS(=O)(=O)c2ccc(C3CNC(=O)C3)cc2)cc1 (stereo not drawn) |  | inconclusive: 0.58 µM [activator, single point]
CCN1C(=NCCCOC(C)C)N[C@@H](CCc2ccccc2)[C@H](C(=O)NCCCOC(C)C)[C@H]1C | inconclusive: -46.7% | 
CN(CC(=O)Nc1cc(Cl)ccc1Cl)C1CCS(=O)(=O)C1 (stereo not drawn) | inconclusive: 1.4% | 
Cc1cccc(NS(=O)(=O)c2cc([N+](=O)[O-])ccc2C)n1 | inconclusive: -15.8% | 
CC1CCC(NC(=O)c2ccc(-n3cncn3)c([N+](=O)[O-])c2)CC1 (stereo not drawn) | inconclusive | 
COc1ccc(NC(=O)c2cc(-c3ccncc3)nc3ccc(Br)cc23)cc1OC |  | inconclusive: 5.8 µM [falling, full curve]
CC(C)/C=C1\CCc2c([nH]c3ccccc23)C1=O | inconclusive: 12.4% | 
Cc1ccccc1N=C(N)Nc1ccccc1C | inconclusive: 0.522% | 
COc1cc(Nc2ccc(C)cc2)c([N+](=O)[O-])nc1[N+](=O)[O-] | inconclusive: -9.4% | 
O=C(CNC(=O)c1ccco1)OCN1C(=O)c2ccccc2C1=O | inconclusive: -12% | 
Cc1ccc(S(=O)(=O)N2CCN(C(=O)CCC(=O)NCc3ccc(F)cc3)CC2)cc1 |  | inconclusive: 5.17 µM [falling, partial curve]
C=CC[C@@H]1C=C[C@H](O/N=C/[C@@H](NS(=O)(=O)c2ccc(C)cc2)[C@H](C)/C=C/CC(=O)OC)[C@@H](CO)O1 | inconclusive: 25.1% | 
